Reference: paper PMC10648081
These are yes or no findings as the source states them, for the method shown. Some entries that bind do so weakly or less than the wild type. Where a sequence is shown, tags or fusion partners need not be part of it.

Tests used:
Assay in all cases: two-hybrid; CP190 variants fused to the GAL4 DNA-binding domain (pGBT9), C2H2 proteins fused to the GAL4 activating domain (pGAD424); yeast PJ69-4a; growth on medium without tryptophan, leucine, histidine and adenine, 30 °C, compared after 2-3 days; repeated three times
[1] = molecular target: T1, CP190 1–245 aa fused to the GAL4 DNA-binding domain (Drosophila melanogaster) (UniProt Q24478)
T1 sequence: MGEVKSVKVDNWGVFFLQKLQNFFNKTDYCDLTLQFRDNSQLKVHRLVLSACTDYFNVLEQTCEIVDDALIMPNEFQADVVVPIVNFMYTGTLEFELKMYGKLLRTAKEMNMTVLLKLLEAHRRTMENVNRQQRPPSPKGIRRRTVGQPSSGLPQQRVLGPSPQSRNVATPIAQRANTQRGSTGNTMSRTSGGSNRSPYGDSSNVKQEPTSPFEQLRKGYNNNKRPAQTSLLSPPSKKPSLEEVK

[2] = molecular target: T2, CP190 309–390 aa fused to the GAL4 DNA-binding domain (Drosophila melanogaster) (UniProt Q24478)
T2 sequence: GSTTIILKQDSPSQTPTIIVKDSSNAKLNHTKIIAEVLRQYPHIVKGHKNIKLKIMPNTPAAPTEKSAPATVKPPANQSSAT

[3] = molecular target: T3, CP190 309–470 aa fused to the GAL4 DNA-binding domain (Drosophila melanogaster) (UniProt Q24478)
T3 sequence: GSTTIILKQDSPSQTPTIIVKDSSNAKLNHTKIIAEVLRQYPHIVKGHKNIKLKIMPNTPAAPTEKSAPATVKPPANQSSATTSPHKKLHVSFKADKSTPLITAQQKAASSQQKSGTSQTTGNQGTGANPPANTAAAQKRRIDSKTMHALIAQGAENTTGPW

Measured: binding

B1: ZIPIC fused to the GAL4 activating domain (protein, UniProt Q9VAB8 1-457)
chain: MNCCICQFSVRVPKDIHTDTVGHPPVLISELVLQCTRGTNYVLTEESSTICKKCCEKLARYHKSIQIARKLRGEILELIHSPYMSKDHKQTSYKEDDLDRETTISKFDGNIEEAQQQDEEEQELESVGTTVTLVGPAGIVEEVAEEEHTFIIKQSEEEDEFHSVDLELDIDNEIIINEEEAHEVEEVAHEIEEVAHEIEEEDLLPHDKQEAQEEDFFKEDTMSDFDEHLDGAIEYIISDGEDQEQDNESSGEYTVNIQCPSCPEKFSSRRAYNVHTKREHFPGYVCDQCGKTLQSYSGFIGHLQNHEPVKQFACPVCPERFSRKFRLKHHMAWHSGETPYQCDVCSKRFVHKVALYKHKMIHDSETKRLECQVCGFKTRTKAHLERHMRSHTGDKPFACPVCNKRFSQMYNMKAHLREHESPGTNRHRRFHCSKCTHTFINEQNYDAHVQRDDCTPV
binds: all assays above
